No constants are given. Whether binding was seen depends on the method and setting. In cells and extracts the contact can be indirect. Some entries that bind do so weakly or less than the wild type.

The chains behind the UniProt entries cited, without tags or fusion partners. Residues count along the entry.
UniProt P05187, residues 23-506: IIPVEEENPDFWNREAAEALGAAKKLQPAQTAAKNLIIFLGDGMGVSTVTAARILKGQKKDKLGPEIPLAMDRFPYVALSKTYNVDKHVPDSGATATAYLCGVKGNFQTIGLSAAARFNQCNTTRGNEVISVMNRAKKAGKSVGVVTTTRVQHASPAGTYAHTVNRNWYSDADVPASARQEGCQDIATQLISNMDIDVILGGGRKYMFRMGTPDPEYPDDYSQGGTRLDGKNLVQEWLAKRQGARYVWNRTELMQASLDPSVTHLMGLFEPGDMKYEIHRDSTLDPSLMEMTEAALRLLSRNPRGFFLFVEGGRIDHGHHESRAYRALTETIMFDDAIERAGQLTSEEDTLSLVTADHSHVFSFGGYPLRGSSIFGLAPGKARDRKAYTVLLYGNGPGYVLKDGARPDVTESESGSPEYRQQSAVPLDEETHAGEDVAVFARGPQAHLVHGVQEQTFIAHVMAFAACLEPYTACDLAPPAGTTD
UniProt P09923, residues 20-503: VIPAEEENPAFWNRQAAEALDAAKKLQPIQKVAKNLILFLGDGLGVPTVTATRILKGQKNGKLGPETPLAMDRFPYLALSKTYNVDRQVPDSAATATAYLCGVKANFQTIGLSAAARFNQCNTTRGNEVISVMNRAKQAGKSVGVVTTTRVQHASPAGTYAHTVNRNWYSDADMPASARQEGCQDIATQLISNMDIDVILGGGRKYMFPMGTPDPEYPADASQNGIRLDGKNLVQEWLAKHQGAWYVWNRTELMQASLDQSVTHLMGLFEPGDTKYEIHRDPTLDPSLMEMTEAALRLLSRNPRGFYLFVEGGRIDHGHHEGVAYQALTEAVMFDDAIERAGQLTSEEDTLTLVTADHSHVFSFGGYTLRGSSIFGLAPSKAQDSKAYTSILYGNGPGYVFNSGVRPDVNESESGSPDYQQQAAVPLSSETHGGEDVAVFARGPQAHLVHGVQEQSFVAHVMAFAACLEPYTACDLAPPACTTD

The target of the experiment is placental alkaline phosphatase (PALP) (human) (UniProt P05187). In words: DSS crosslinking on LoVo cells, pull-down with biotinylated aptamer BG2, western blot with anti-IAP and anti-PALP antibodies. In general terms: In western blotting, separated proteins are transferred to a membrane and probed.

As for “intestinal alkaline phosphatase (IAP) (from UniProt P09923 20-503) (enzyme)”, the binding result was “binds”.

For the origin of these results see patent US12365903.
